“Also recorded” adds a separate entry of the source. At least one peptide structure holds a part that was inferred or is arguable (an end, a ring closure or a residue). Where no end group is shown, it is not given here.
Tests used:
[1] = test system: κB DNA binding activity in HeLa cells; test: Gel shift assay in HeLa cells, peptides lacking TAT delivered with K16ApoE transport peptide; format: cell-based, human; details: HeLa cells induced with LPS or TNF-α; peptide applied together with K16ApoE
[2] = test system: NF-κB-regulated genes in BMDM cells; test: RT-qPCR of NF-κB target genes in LPS-induced BMDM cells; format: cell-based, C57BL/6J mice; details: 50 μM peptide

LSSPLALPSQRRSPPEE [NEMO^ActPep]
inhibition of NF-κB activity without the TAT sequence (EMSA) [1]: yielded similar results; also recorded: not reliant upon the HIV-1 TAT peptide
mRNA transcript levels of NF-κB-regulated genes (RT-qPCR) [2]: significant inhibition of some, but not all, NF-κB-regulated genes

— US20240166703A1, “ANTI-INFLAMMATORY PEPTIDE AND METHOD OF USE THEREOF” (The Regents of the University of California, priority 2021, published 2024)
